Among the data in paper PMC12034783 are binding values, retold here.

The chains behind the UniProt entries cited, without tags or fusion partners. Where a name states a change or a piece, a line headed by the entry shows the natural chain unless it says otherwise. Residues count along the entry.
UniProt Q15910: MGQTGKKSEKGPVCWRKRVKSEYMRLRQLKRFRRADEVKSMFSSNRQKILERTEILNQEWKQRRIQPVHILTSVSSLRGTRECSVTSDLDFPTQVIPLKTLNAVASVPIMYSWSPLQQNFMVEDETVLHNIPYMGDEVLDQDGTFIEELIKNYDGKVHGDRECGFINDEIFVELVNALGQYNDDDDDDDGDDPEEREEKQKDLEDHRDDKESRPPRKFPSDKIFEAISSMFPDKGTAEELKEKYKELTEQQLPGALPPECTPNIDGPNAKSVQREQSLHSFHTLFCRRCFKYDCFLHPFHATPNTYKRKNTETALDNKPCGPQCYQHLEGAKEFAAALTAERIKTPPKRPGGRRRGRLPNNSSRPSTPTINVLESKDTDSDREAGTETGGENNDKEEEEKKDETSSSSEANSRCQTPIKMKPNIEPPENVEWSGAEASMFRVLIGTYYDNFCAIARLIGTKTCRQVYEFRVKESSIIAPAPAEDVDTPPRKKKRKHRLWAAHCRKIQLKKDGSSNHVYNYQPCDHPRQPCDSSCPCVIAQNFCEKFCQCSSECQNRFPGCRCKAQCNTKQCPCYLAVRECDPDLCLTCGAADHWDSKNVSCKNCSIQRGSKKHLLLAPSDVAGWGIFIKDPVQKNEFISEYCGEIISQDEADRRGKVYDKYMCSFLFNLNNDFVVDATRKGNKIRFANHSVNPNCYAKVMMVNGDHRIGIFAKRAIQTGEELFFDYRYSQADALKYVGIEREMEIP
UniProt P62258: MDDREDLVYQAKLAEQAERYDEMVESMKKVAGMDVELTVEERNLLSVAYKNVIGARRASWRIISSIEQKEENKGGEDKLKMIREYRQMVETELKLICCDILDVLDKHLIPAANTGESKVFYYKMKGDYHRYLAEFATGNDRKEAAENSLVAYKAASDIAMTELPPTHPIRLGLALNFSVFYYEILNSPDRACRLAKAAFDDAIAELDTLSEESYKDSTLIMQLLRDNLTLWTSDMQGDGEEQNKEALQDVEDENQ
UniProt P07339: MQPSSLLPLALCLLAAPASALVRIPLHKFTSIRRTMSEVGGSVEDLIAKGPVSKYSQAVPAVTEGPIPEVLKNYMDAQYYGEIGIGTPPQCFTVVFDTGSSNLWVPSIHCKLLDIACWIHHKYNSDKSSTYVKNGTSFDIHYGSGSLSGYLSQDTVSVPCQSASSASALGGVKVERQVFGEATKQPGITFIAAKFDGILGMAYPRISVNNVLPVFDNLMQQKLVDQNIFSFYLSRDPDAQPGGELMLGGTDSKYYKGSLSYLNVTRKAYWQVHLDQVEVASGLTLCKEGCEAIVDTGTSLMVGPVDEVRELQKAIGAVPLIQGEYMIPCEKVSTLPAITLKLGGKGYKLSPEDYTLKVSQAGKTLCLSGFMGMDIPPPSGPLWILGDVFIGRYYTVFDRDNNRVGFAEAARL
UniProt Q13510, residues 22-395: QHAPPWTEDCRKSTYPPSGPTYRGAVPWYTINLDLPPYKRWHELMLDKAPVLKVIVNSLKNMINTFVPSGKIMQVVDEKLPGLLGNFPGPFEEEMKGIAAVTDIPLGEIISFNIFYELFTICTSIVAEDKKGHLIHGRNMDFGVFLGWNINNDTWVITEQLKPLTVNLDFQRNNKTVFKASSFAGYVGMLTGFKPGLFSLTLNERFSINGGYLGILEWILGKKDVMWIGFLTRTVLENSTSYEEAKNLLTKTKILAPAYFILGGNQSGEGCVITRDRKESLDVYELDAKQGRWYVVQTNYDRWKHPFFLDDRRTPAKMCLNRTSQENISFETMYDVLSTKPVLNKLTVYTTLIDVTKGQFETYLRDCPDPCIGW
UniProt P28074: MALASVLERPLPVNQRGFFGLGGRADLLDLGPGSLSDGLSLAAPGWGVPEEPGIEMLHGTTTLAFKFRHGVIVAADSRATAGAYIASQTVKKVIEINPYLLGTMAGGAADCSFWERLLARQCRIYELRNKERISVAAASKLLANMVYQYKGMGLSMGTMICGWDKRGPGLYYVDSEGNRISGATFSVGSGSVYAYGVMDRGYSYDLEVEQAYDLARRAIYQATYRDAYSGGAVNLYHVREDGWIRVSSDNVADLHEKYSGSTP

The target of experiment [1] is Enhancer of Zeste Homolog-2 (EZH2) (human (endogenous in EA.hy926 and HUVEC)) (UniProt Q15910). Nature of the experiment: condition: only cells exposed to GSNO (100 uM) for 30 min; affinity purification with mass spectrometry; as a5, HUVEC treated with GSNO (100 uM) for 30 min before lysis; abundances of PRC2 proteins normalised to that of EZH2 and compared with untreated cells.

The target is the same in experiment [2]. Description: affinity purification with mass spectrometry; EZH2 mAb on protein A magnetic beads, overnight with 1000 ug of HUVEC lysate in RIPA buffer, tryptic digest, LC-MS/MS (Orbitrap Exploris); untreated control cells (for partners said to be unchanged also the GSNO sample); two biological replicates.
Experiment [3] shares this target. Nature of the experiment: affinity purification with mass spectrometry; as a5, HUVEC treated with GSNO (100 uM) for 30 min before lysis; abundances of PRC2 proteins normalised to that of EZH2 and compared with untreated cells.

These are yes or no findings as the source states them, for the method shown. Binding seen in cells or lysates may run through a third protein. A yes stands for co-enrichment or nearness to the bait. Other partners may have been found. For some assays here: A no says only that the protein was not detected with the bait.

As to “14-3-3 epsilon (from UniProt P62258 1-255)”, the values for the binding entry in experiment [1] and in experiment [2] were “no binding” and “binds”, respectively.
Take “cathepsin D lysosomal protease (from UniProt P07339) (enzyme)”: the results for the binding result in experiment [2] and in experiment [3] were “no binding (only control cells without GSNO)” and “binds”, respectively.
On to “lysosomal acid ceramidase (from UniProt Q13510 22-395) (enzyme)”, for which the results for the binding entry in experiment [2] and in experiment [3] were “no binding (only control cells without GSNO)” and “binds”, respectively.
On the same counts, the results for “proteasome subunit beta type-5 (from UniProt P28074)” are “no binding (only control cells without GSNO)” and “binds”.
